These are yes or no findings as the source states them, for the method shown. Binding seen in cells or lysates may run through a third protein. Some binding calls cover weakened binding; strength is not graded here. For part of these data: Sequences can lack the tags named with a protein.

Sequences of proteins named here, by UniProt entry; tags and fusion partners are left off.
UniProt Q9ES70: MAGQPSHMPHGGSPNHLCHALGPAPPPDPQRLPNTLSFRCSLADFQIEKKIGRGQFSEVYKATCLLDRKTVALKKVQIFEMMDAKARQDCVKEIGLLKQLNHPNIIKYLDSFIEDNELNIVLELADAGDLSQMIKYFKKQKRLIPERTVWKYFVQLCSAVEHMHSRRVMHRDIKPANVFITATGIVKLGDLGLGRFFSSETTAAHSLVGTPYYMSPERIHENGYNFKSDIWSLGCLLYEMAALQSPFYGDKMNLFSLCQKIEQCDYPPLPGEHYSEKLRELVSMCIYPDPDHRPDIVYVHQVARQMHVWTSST

Assay [1] deals with T1, glutathione S-transferase (GST)-LNX1 fusion protein (UniProt O70263).
T1 sequence: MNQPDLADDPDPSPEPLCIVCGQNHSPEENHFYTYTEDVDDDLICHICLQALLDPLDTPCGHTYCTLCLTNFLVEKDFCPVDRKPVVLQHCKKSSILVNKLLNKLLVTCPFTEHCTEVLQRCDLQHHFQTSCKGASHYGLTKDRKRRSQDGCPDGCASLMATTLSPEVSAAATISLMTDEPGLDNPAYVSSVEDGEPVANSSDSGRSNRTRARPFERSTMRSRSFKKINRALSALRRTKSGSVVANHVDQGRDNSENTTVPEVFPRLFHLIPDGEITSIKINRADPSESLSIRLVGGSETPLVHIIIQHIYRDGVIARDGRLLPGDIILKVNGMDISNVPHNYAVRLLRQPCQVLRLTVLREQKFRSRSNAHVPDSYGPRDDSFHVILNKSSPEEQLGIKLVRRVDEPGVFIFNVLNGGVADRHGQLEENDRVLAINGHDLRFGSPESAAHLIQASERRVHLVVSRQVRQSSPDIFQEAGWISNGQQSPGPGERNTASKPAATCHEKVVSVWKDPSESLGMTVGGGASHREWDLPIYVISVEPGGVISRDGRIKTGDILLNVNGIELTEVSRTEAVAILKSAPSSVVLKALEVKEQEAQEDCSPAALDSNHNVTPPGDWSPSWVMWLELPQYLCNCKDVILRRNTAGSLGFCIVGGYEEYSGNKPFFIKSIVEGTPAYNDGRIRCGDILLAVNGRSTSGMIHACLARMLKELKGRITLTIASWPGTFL
In words: pull-down; in vitro GST pulldown with GST-LNX1 fusion protein and Myc-NEK6.

The target of assay [2] is NEK6, endogenous (mouse (endogenous in L929, RAW 264.7 and BMDMs)) (UniProt Q9ES70). In words: co-IP; LNX1-deficient cells transfected with HA-tagged LNX1; immunoprecipitation in the presence and absence of LNX1.
Assay [3] has as its target Myc-tagged NEK6 (NIMA-related expressed kinase 6) (UniProt Q9ES70). In words: co-IP; HA-LNX1 and Myc-NEK6 cotransfected (RAW 264.7 in the text, HEK-293T in the legend); lysate immunoprecipitated with anti-Myc antibody and protein A/G beads overnight at 4°C; immunoblot. On the technique in general: In western blotting, separated proteins are transferred to a membrane and probed.

The target in assay [4] is NEK6, endogenous (mouse (endogenous in L929, RAW 264.7 and BMDMs)) (UniProt Q9ES70). In words: co-IP; endogenous proteins in RAW 264.7 cells, stimulated with 10 μg/ml gamma-irradiated M. tuberculosis for 24 h; immunoprecipitation.
Assay [5] has the same target. In words: co-IP; endogenous proteins in L929 cells transfected with miR-325-3p mimic or inhibitor; lysate immunoprecipitated with anti-NEK6 antibody, LNX1 by immunoblot.
The target is the same in assay [6]. In words: co-IP; endogenous proteins in BMDMs from Lnx1 fl/fl and Lnx1 fl/fl Lyz2-Cre mice, stimulated with 10 μg/ml gamma-irradiated M. tuberculosis for 24 h; immunoprecipitation.

As for “Myc-tagged NEK6 (NIMA-related expressed kinase 6) (from UniProt Q9ES70 1-313) (enzyme)”, the binding entry in assay [1] is reported as “binds”.

B1: HA-tagged LNX1 (ligand of numb-protein X 1) (enzyme, UniProt O70263 1-728)
chain: T1 sequence
As to B1, the binding result in assay [2] and in assay [3] was “binds” throughout.

B2: LNX1, endogenous (enzyme, UniProt O70263 1-728)
chain: T1 sequence
Take B2: the binding entry in assay [4], in assay [5] and in assay [6] was “binds” throughout.

The values are drawn from article PMC7267881.
